PubChem BioAssay AID1259308, NCATS, 2017
Assay: 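Knock-downs that increase output of a recombinant reporter protein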 (primary screen). Cells: human HEK293 embryonic kidney cells stably expressing firefly luciferase (HEK-CMV-Luc2-Hygro). Knock-down reagent: single siRNA against human genes, 0.8 pmol siRNA per well. Duration: 72 h. Read-out: 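Reporter luminescence and viable-cell signal on separate replicate plates, given as percent of non-targeting control and median/MAD z-scores, plus per-cell luciferase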. Direction: total luciferase, z-score and total luciferase, % of control: higher = more reporter protein produced; luciferase per cell, z-score: higher = more reporter output per viable cell; viable cells, % of control: higher = more viable cells. Call rule: 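Active when the median/MAD z-score for overall luciferase is greater than 3; a gene was taken forward for validation with new siRNAs if at least two of its three siRNAs passed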. Calls: active = raised luciferase; inactive = no rise.
The whole screen tested about 59,000 reagents; this is a part drawn at random. In the full data, about 1,510 (2.6%) got an active call. 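Calls use total luciferase alone and ignore viability, so some active siRNAs may act by altering cell number.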 A number with no mark means an inactive call. The numbers tell different reagents against one gene apart. Reagent sequences are not shown.

| gene symbol | siRNA no. | total luciferase, z-score | total luciferase, % of control | luciferase per cell, z-score | viable cells, % of control |
| --- | --- | --- | --- | --- | --- |
| KCNMA1 (potassium calcium-activated channel subfamily M alpha 1) | 1 | 0.91 | 100 | 0.832 | 89.7 |
| KCNMA1 (potassium calcium-activated channel subfamily M alpha 1) | 2 | 2.06 | 123 | 2.77 | 66.2 |
| KCNMA1 (potassium calcium-activated channel subfamily M alpha 1) | 3 | 1.78 | 117 | 1.34 | 92.1 |
| COPS7B (COP9 signalosome subunit 7B) | 1 | 0.14 | 84.7 | 0.32 | 87 |
| COPS7B (COP9 signalosome subunit 7B) | 2 | -1.1 | 60.1 | -1.33 | 95.2 |
| COPS7B (COP9 signalosome subunit 7B) | 3 | -0.145 | 79 | -0.694 | 106 |
| COL1A2 (collagen type I alpha 2 chain) | 1 | 1.5 | 112 | 0.978 | 96.6 |
| COL1A2 (collagen type I alpha 2 chain) | 2 | -0.389 | 74.2 | -0.622 | 97.6 |
| COL1A2 (collagen type I alpha 2 chain) | 3 | 0.219 | 86.2 | 1.18 | 70.6 |
| GNAQ (G protein subunit alpha q) | 1 | 0.0133 | 82.2 | 0.22 | 86.6 |
| GNAQ (G protein subunit alpha q) | 2 | 0.0138 | 82.2 | -0.0519 | 93.1 |
| GNAQ (G protein subunit alpha q) | 3 | 0.958 | 101 | 3.05 | 50.5 |
| SPTA1 (spectrin alpha, erythrocytic 1) | 1 | 0.368 | 89.2 | 0.799 | 80.8 |
| SPTA1 (spectrin alpha, erythrocytic 1) | 2 | 1.25 | 107 | 1.1 | 89.3 |
| SPTA1 (spectrin alpha, erythrocytic 1) | 3 | -0.759 | 66.8 | -1.26 | 104 |
| RASSF5 (Ras association domain family member 5) | 1 | -0.394 | 74.1 | -0.154 | 86.2 |
| RASSF5 (Ras association domain family member 5) | 2 | -0.0433 | 81 | -0.0141 | 90.9 |
| RASSF5 (Ras association domain family member 5) | 3 | 0.465 | 91.1 | -0.207 | 108 |
| ANGPTL3 (angiopoietin like 3) | 1 | -0.881 | 64.4 | -0.886 | 90.8 |
| ANGPTL3 (angiopoietin like 3) | 2 | -1.04 | 61.1 | -1.15 | 92.5 |
| ANGPTL3 (angiopoietin like 3) | 3 | 0.173 | 85.3 | -0.358 | 105 |
| ADAM10 (ADAM metallopeptidase domain 10) | 1 | -1.18 | 58.4 | -1.57 | 98.7 |
| ADAM10 (ADAM metallopeptidase domain 10) | 2 | 0.773 | 97.3 | -0.0251 | 109 |
| ADAM10 (ADAM metallopeptidase domain 10) | 3 | -0.315 | 75.6 | 0.399 | 76.1 |
| ZNF773 (zinc finger protein 773) | 1 | -0.517 | 71.6 | -0.232 | 85 |
| ZNF773 (zinc finger protein 773) | 2 | 1.37 | 109 | 1.6 | 80 |
| ZNF773 (zinc finger protein 773) | 3 | 0.383 | 89.5 | 0.559 | 86.3 |
| ACYP1 (acylphosphatase 1) | 1 | 1.01 | 102 | 0.257 | 106 |
| ACYP1 (acylphosphatase 1) | 2 | 2.57 | 133 | 1.8 | 92.5 |
| ACYP1 (acylphosphatase 1) | 3 | -2 | 42.2 | -1.09 | 62.7 |
| DERL3 (derlin 3) | 1 | -0.535 | 71.2 | -1.01 | 104 |
| DERL3 (derlin 3) | 2 | -2.2 | 38.1 | -1.35 | 60.7 |
| DERL3 (derlin 3) | 3 | 0.708 | 96 | 0.522 | 93.5 |
| CNNM3 | 1 | 0.0538 | 83 | -0.283 | 99.9 |
| CNNM3 | 2 | -1.21 | 57.8 | -1.02 | 84.5 |
| CNNM3 | 3 | 0.636 | 94.5 | 0.564 | 91.1 |
| ZNF519P3 (zinc finger protein 519 pseudogene 3) | 1 | 0.183 | 85.5 | 0.732 | 78.8 |
| ZNF519P3 (zinc finger protein 519 pseudogene 3) | 2 | 0.00319 | 81.9 | 0.0284 | 90.9 |
| ZNF519P3 (zinc finger protein 519 pseudogene 3) | 3 | -0.161 | 78.7 | 0.128 | 85 |

Quoted from the entries so far (2 entries):
| gene symbol | siRNA no. | total luciferase, z-score | total luciferase, % of control | luciferase per cell, z-score | viable cells, % of control |
| --- | --- | --- | --- | --- | --- |
| ANGPTL3 (angiopoietin like 3) | 3 | 0.173 | 85.3 | -0.358 | 105 |
| ADAM10 (ADAM metallopeptidase domain 10) | 1 | -1.18 | 58.4 | -1.57 | 98.7 |
